Reference: PMC10345098

Chains of the proteins cited; added tags and fusions are not shown. Lines headed by an entry give the natural chain unless they say otherwise; changes in a name come on top. Chains listed by the source or under a name are the forms on record and can include a tag or linker.
UniProt P62508: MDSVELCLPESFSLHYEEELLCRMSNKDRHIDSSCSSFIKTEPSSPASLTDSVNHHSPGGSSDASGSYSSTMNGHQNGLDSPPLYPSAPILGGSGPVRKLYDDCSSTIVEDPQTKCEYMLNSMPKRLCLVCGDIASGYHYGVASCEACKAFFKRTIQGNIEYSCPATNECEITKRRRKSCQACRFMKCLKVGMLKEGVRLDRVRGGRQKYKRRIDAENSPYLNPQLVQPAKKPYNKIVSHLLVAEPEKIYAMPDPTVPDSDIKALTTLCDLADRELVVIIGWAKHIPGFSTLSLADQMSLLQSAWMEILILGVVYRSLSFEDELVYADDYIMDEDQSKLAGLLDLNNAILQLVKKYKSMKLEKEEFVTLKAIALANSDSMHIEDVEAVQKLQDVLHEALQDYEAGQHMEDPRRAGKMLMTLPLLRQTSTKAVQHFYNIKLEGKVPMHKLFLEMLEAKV
ESRRB (Homo sapiens), one chain, as listed by the source: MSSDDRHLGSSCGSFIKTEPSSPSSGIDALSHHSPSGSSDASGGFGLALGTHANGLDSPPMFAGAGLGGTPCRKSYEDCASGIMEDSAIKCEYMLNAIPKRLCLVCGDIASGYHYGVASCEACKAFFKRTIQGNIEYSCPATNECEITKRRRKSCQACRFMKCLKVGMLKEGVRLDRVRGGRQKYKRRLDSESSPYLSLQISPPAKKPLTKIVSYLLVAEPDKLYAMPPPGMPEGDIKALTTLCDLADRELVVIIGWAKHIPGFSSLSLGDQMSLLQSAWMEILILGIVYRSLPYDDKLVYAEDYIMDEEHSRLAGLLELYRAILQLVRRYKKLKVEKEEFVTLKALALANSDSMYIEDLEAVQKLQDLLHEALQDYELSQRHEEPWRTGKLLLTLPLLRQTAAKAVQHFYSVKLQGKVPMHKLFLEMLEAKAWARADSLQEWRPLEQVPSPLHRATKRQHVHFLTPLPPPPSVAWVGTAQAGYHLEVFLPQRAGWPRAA

Legend:
ESRRG (Homo sapiens) = ESRRG (Homo sapiens) (UniProt P62508); experiment: SELEX; details: 25 mM HEPES pH 7.4, 80 mM KCl, 0.2 mM EDTA, 1 mM MgCl2, 0.1 mM ZnSO4, 2.5 mM DTT, 50 ng/ul poly dI-dC, 0.1% BSA, 1 h room temperature, ligand 100 nM when included, high values mean tight binding, protein in a lysate after overexpression, protein details: HaloTag, only the motif is given
ESRRB (Homo sapiens) = experiment: SELEX; details: no ligand; 25 mM HEPES pH 7.4, 80 mM KCl, 0.2 mM EDTA, 1 mM MgCl2, 0.1 mM ZnSO4, 2.5 mM DTT, 50 ng/ul poly dI-dC, 0.1% BSA, 1 h room temperature; ligand 100 nM when included; high values mean tight binding; protein in a lysate after overexpression; protein details: HaloTag; only the motif is given

| Sequence | binding signal (fold enrichment) (ESRRG (Homo sapiens); ligand #4 of Fig. 1b, 100 nM) | binding signal (fold enrichment) (ESRRB (Homo sapiens)) | binding signal (fold enrichment) (ESRRG (Homo sapiens); no ligand) |
| --- | --- | --- | --- |
| AGGTCAC (double strand) [AGGTCACNNNNN] | 28.1 |  |  |
| AGGTCAT (double strand) [AGGTCATNNNNN] |  | 356 | 46.5 |

Results from cells or extracts need not show a direct contact.
